{"sequences": {"note": "Sequences of proteins named here, by UniProt entry; tags and fusion partners are left off. A change or cut given only in a name is not applied to a line headed by its entry.", "UniProt Q9H7H0": "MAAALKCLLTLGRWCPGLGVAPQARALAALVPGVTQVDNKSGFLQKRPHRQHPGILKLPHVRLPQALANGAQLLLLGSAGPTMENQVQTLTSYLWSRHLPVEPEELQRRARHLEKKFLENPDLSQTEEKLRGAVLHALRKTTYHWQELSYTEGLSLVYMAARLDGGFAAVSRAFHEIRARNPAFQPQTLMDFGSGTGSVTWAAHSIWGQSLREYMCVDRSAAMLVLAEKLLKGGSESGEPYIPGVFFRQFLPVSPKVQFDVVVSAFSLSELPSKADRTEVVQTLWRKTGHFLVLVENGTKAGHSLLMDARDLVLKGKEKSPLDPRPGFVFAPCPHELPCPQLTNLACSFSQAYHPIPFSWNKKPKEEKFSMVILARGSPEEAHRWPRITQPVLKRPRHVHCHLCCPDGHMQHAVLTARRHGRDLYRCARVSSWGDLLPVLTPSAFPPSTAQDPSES", "UniProt Q9H2G9": "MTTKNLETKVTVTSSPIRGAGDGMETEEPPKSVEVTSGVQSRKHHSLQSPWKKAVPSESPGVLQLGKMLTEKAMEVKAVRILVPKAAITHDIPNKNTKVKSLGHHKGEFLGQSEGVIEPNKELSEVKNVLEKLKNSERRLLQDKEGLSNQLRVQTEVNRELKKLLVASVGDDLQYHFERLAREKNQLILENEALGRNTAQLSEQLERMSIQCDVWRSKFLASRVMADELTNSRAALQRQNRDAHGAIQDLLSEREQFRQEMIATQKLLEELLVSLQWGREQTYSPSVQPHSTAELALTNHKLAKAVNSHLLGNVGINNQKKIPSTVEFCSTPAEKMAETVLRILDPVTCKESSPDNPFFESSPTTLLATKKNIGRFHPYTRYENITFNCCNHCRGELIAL", "UniProt Q9H4G0, whole entry": "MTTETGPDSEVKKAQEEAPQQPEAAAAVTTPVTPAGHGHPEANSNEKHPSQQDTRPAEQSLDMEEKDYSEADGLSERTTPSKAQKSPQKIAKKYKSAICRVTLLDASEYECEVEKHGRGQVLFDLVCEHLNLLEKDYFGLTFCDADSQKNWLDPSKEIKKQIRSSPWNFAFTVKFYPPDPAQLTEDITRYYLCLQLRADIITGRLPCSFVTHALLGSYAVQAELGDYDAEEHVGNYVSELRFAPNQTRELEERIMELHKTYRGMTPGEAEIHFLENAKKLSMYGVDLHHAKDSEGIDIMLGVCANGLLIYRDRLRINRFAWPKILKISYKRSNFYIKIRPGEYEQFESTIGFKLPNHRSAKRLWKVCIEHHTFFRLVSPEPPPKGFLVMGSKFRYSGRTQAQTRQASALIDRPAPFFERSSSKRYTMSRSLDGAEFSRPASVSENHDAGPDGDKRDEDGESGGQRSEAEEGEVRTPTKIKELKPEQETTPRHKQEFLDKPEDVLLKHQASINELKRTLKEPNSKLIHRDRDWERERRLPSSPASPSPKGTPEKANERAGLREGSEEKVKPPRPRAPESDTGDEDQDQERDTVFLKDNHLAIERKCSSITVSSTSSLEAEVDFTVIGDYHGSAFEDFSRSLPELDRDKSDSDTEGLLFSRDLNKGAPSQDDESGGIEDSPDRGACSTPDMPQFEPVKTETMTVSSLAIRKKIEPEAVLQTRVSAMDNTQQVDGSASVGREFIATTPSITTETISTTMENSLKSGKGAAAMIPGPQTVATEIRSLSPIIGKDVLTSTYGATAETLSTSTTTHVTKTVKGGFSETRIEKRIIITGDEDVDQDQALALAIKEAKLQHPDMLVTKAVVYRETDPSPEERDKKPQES", "UniProt Q9H7C9": "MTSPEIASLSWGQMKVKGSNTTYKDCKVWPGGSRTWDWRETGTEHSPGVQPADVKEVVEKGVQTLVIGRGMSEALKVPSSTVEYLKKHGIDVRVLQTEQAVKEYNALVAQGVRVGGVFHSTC", "UniProt Q9H361, whole entry": "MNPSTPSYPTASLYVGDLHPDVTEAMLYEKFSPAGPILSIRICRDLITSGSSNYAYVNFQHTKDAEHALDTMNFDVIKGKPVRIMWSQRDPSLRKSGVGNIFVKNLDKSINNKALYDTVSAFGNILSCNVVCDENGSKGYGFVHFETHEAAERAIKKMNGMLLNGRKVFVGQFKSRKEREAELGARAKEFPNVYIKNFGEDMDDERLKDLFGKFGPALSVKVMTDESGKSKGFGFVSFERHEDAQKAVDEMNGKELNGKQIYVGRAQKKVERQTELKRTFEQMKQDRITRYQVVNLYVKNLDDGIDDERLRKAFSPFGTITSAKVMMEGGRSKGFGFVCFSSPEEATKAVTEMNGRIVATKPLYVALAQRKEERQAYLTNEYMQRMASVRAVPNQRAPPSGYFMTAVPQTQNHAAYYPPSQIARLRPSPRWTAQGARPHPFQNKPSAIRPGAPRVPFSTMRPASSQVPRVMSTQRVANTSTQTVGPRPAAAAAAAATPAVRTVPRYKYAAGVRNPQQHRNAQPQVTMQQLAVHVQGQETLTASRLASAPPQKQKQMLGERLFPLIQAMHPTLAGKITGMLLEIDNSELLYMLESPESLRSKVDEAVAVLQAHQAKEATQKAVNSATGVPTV", "UniProt Q9H6H4": "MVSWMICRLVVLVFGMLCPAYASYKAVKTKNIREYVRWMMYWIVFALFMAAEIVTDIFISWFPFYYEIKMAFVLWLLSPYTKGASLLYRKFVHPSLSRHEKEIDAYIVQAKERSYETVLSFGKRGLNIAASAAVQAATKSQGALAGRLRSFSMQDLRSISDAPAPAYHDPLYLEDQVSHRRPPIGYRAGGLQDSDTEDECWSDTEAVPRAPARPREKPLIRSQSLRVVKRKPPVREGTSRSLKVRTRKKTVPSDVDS", "UniProt Q9C0C4, whole entry": "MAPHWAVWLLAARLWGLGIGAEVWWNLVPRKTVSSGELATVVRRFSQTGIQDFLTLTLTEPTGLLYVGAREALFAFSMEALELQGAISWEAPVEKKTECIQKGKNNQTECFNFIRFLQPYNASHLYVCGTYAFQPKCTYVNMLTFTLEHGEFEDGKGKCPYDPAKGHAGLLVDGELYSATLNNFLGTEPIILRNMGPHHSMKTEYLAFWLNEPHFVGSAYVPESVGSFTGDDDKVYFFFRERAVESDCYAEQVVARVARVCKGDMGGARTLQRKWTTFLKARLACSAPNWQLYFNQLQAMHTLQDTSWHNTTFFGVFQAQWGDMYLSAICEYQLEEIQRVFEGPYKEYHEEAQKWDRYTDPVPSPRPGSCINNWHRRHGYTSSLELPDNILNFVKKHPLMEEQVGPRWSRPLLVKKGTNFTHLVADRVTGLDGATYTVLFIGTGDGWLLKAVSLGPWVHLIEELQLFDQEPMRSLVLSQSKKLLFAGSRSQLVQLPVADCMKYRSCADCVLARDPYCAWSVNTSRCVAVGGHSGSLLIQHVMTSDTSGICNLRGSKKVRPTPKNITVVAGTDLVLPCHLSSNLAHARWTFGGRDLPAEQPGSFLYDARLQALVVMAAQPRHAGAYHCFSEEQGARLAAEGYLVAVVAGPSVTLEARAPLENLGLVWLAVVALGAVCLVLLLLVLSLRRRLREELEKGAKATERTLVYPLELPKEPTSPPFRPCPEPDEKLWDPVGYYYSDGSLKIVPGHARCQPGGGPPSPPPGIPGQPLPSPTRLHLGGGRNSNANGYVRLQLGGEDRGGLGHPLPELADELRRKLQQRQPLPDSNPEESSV", "UniProt Q9H6S3": "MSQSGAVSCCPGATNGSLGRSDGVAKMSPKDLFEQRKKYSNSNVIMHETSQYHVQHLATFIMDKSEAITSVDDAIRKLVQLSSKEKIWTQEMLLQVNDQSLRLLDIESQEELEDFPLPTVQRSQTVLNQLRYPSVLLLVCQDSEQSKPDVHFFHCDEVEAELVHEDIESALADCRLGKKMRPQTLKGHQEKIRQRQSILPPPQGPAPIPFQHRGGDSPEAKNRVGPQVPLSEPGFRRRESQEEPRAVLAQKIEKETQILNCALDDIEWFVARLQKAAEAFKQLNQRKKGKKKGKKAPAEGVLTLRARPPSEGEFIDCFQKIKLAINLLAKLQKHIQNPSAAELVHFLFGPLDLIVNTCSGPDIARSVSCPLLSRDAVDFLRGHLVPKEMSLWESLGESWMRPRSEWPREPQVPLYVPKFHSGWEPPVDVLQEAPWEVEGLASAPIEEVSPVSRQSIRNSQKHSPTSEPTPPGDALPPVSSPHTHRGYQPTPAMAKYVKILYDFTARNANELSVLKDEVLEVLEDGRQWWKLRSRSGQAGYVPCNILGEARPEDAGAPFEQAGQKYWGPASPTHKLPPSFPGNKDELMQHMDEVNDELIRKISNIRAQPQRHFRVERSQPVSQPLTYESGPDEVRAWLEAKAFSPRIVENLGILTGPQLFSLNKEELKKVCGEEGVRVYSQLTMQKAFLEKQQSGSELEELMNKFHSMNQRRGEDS", "UniProt Q9BZI7": "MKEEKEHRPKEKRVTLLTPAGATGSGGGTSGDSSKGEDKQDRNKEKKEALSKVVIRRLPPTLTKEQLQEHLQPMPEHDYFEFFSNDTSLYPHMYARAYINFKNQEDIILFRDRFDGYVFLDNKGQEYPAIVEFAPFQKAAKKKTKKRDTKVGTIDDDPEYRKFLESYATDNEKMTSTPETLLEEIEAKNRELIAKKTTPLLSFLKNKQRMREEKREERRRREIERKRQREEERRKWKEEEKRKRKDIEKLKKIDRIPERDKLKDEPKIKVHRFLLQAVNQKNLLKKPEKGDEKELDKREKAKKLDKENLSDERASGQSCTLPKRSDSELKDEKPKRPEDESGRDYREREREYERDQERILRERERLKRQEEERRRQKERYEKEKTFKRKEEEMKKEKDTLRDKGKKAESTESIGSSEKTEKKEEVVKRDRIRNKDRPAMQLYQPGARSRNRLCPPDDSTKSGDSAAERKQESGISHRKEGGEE", "UniProt Q9GZT9": "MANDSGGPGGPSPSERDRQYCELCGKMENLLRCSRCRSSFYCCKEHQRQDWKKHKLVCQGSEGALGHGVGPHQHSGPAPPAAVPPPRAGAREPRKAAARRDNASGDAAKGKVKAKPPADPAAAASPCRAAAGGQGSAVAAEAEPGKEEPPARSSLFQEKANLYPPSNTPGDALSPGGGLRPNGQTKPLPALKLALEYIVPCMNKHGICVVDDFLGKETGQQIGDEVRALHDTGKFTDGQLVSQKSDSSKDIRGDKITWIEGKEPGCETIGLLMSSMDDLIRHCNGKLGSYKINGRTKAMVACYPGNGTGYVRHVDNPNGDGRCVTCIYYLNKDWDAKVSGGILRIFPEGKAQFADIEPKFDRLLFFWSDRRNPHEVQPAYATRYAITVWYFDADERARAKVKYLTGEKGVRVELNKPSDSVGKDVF", "UniProt Q9H501": "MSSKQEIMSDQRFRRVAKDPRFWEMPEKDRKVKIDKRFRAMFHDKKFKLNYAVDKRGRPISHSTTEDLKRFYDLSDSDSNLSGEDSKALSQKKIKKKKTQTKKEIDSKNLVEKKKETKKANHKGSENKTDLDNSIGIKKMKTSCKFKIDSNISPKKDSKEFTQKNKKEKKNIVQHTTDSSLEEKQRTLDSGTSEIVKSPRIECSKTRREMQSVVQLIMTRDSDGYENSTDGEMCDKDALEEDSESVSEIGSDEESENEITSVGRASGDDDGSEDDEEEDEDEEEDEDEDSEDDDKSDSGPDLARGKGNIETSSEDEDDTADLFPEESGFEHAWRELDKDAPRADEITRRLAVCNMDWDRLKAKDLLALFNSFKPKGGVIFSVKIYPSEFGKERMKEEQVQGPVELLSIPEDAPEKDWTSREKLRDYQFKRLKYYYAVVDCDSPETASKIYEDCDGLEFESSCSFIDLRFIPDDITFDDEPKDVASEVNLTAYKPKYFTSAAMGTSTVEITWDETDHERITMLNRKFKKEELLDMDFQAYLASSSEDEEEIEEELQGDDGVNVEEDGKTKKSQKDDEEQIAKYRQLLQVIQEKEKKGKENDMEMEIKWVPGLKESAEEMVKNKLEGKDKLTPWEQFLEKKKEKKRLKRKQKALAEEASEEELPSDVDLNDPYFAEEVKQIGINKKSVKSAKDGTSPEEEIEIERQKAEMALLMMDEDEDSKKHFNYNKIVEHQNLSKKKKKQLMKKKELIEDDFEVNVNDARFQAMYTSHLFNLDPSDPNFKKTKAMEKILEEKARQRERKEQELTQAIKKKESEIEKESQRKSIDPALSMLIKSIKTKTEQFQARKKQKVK", "UniProt Q9BZD4": "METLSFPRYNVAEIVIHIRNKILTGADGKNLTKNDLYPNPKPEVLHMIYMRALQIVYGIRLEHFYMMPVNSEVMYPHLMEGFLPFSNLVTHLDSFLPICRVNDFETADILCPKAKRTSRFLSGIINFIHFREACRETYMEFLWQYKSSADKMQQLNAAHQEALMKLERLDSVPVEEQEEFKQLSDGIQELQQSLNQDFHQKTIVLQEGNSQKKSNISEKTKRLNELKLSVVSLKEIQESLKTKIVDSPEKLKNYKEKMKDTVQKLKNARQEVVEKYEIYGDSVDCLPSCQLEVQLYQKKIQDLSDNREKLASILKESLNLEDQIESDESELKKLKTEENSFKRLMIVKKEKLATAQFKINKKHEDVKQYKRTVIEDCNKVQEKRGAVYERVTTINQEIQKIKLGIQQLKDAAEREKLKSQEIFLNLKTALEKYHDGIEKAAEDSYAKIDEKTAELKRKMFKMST"}, "source": "the supplement of paper PMC12595434", "about": "“Development of retinoid nuclear receptor pathway antagonists through targeting aldehyde dehydrogenase 1A3” (iScience, 2025)", "compound": "CCc1cnccc1C(=O)Nc1cc2c(cc1F)NC(=O)CC2", "test": "melting temperature shift (DMSO Tm minus MBE1-treated Tm) in cellular thermal proteome profiling; higher = less thermal stabilization by MBE1 (negative = stabilized by MBE1)", "conditions": "A375", "note": "Some of the results follow. This is a noisy data set.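 Many melting curves are irregular; where none melted, Tm was taken as 64 °C.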"}
{"target": "UniProt Q9H7H0", "values": [{"measurement": "melting temperature shift", "setting": "MBE1 concentration: 100 nM", "value": 0.281, "unit": "°C"}, {"measurement": "melting temperature shift", "setting": "MBE1 concentration: 1 uM", "value": 1.36, "unit": "°C"}]}
{"target": "BLZF1 (UniProt Q9H2G9)", "values": [{"measurement": "melting temperature shift", "setting": "MBE1 concentration: 100 nM", "value": 0.684, "unit": "°C"}, {"measurement": "melting temperature shift", "setting": "MBE1 concentration: 1 uM", "value": -0.348, "unit": "°C"}]}
{"target": "EPB41L1 (UniProt Q9H4G0)", "values": [{"measurement": "melting temperature shift", "setting": "MBE1 concentration: 100 nM", "value": -0.57, "unit": "°C"}, {"measurement": "melting temperature shift", "setting": "MBE1 concentration: 1 uM", "value": -0.39, "unit": "°C"}]}
{"target": "GHITM (UniProt Q9H3K2)", "values": [{"measurement": "melting temperature shift", "setting": "MBE1 concentration: 100 nM", "value": -2.07, "unit": "°C"}, {"measurement": "melting temperature shift", "setting": "MBE1 concentration: 1 uM", "value": -0.449, "unit": "°C"}]}
{"target": "UniProt Q9H7L9", "values": [{"measurement": "melting temperature shift", "setting": "MBE1 concentration: 100 nM", "value": -0.736, "unit": "°C"}, {"measurement": "melting temperature shift", "setting": "MBE1 concentration: 1 uM", "value": -0.296, "unit": "°C"}]}
{"target": "AAMDC (UniProt Q9H7C9)", "values": [{"measurement": "melting temperature shift", "setting": "MBE1 concentration: 100 nM", "value": -0.417, "unit": "°C"}, {"measurement": "melting temperature shift", "setting": "MBE1 concentration: 1 uM", "value": 0.826, "unit": "°C"}]}
{"target": "UniProt Q9H0K1", "values": [{"measurement": "melting temperature shift", "setting": "MBE1 concentration: 100 nM", "value": -0.293, "unit": "°C"}, {"measurement": "melting temperature shift", "setting": "MBE1 concentration: 1 uM", "value": 0.756, "unit": "°C"}]}
{"target": "UniProt Q9H361", "values": [{"measurement": "melting temperature shift", "setting": "MBE1 concentration: 100 nM", "value": 0.0894, "unit": "°C"}, {"measurement": "melting temperature shift", "setting": "MBE1 concentration: 1 uM", "value": 0.551, "unit": "°C"}]}
{"target": "REEP4 (UniProt Q9H6H4)", "values": [{"measurement": "melting temperature shift", "setting": "MBE1 concentration: 100 nM", "value": -1.25, "unit": "°C"}, {"measurement": "melting temperature shift", "setting": "MBE1 concentration: 1 uM", "value": -0.791, "unit": "°C"}]}
{"target": "UniProt Q9C0C4", "values": [{"measurement": "melting temperature shift", "setting": "MBE1 concentration: 100 nM", "value": -1.32, "unit": "°C"}, {"measurement": "melting temperature shift", "setting": "MBE1 concentration: 1 uM", "value": 0.556, "unit": "°C"}]}
{"target": "NSRP1 (UniProt Q9H0G5)", "values": [{"measurement": "melting temperature shift", "setting": "MBE1 concentration: 100 nM", "value": -1.31, "unit": "°C"}, {"measurement": "melting temperature shift", "setting": "MBE1 concentration: 1 uM", "value": -1.31, "unit": "°C"}]}
{"target": "EPS8L2 (UniProt Q9H6S3)", "values": [{"measurement": "melting temperature shift", "setting": "MBE1 concentration: 100 nM", "value": -0.0268, "unit": "°C"}, {"measurement": "melting temperature shift", "setting": "MBE1 concentration: 1 uM", "value": 2.66, "unit": "°C"}]}
{"target": "RAB1B (UniProt Q9H0U4)", "values": [{"measurement": "melting temperature shift", "setting": "MBE1 concentration: 100 nM", "value": -1.37, "unit": "°C"}, {"measurement": "melting temperature shift", "setting": "MBE1 concentration: 1 uM", "value": -0.711, "unit": "°C"}]}
{"target": "POLR3F (UniProt Q9H1D9)", "values": [{"measurement": "melting temperature shift", "setting": "MBE1 concentration: 100 nM", "value": -0.724, "unit": "°C"}, {"measurement": "melting temperature shift", "setting": "MBE1 concentration: 1 uM", "value": -1.13, "unit": "°C"}]}
{"target": "UPF3B (UniProt Q9BZI7)", "values": [{"measurement": "melting temperature shift", "setting": "MBE1 concentration: 100 nM", "value": -0.53, "unit": "°C"}, {"measurement": "melting temperature shift", "setting": "MBE1 concentration: 1 uM", "value": 1.03, "unit": "°C"}]}
{"target": "UBE2Z (UniProt Q9H832)", "values": [{"measurement": "melting temperature shift", "setting": "MBE1 concentration: 100 nM", "value": -0.235, "unit": "°C"}, {"measurement": "melting temperature shift", "setting": "MBE1 concentration: 1 uM", "value": 0.147, "unit": "°C"}]}
{"target": "ATG5 (UniProt Q9H1Y0)", "values": [{"measurement": "melting temperature shift", "setting": "MBE1 concentration: 100 nM", "value": -0.268, "unit": "°C"}, {"measurement": "melting temperature shift", "setting": "MBE1 concentration: 1 uM", "value": -0.148, "unit": "°C"}]}
{"target": "UniProt Q9H2G4", "values": [{"measurement": "melting temperature shift", "setting": "MBE1 concentration: 100 nM", "value": -0.75, "unit": "°C"}, {"measurement": "melting temperature shift", "setting": "MBE1 concentration: 1 uM", "value": -0.98, "unit": "°C"}]}
{"target": "MIS12 (UniProt Q9H081)", "values": [{"measurement": "melting temperature shift", "setting": "MBE1 concentration: 100 nM", "value": 0.354, "unit": "°C"}, {"measurement": "melting temperature shift", "setting": "MBE1 concentration: 1 uM", "value": 0.812, "unit": "°C"}]}
{"target": "EGLN1 (UniProt Q9GZT9)", "values": [{"measurement": "melting temperature shift", "setting": "MBE1 concentration: 100 nM", "value": 0.995, "unit": "°C"}, {"measurement": "melting temperature shift", "setting": "MBE1 concentration: 1 uM", "value": 1.79, "unit": "°C"}]}
{"target": "ESF1 (UniProt Q9H501)", "values": [{"measurement": "melting temperature shift", "setting": "MBE1 concentration: 100 nM", "value": -0.115, "unit": "°C"}, {"measurement": "melting temperature shift", "setting": "MBE1 concentration: 1 uM", "value": -0.122, "unit": "°C"}]}
{"target": "NUF2 (UniProt Q9BZD4)", "values": [{"measurement": "melting temperature shift", "setting": "MBE1 concentration: 100 nM", "value": -0.275, "unit": "°C"}, {"measurement": "melting temperature shift", "setting": "MBE1 concentration: 1 uM", "value": -0.0897, "unit": "°C"}]}
